# From PubChem BioAssay AID1259415 (National Center for Advancing Translational Sciences (NCATS), 2018)
# Hit rate of the full screen: of about 410,000 compounds, about 18,000 (4.4%) were called active. This list was built around the results that the source calls inconclusive (neither active nor inactive); the mix of calls is not that of the screen. Cut-off read from the data, not from the text of the source: active = activity change below about -60%; inconclusive = no clear call, values can overlap the other calls; inactive = above about -39%.
# Assay: qHTS Assay for inhibitors of the human cytomegalovirus (HCMV)
# Details: HFF cells, HCMV-luciferase reporter, 72 h; at 57.5 µM; stronger effect = lower value
# Procedure, shortened: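 Luciferase read-out from HCMV-luciferase-infected HFFs (MOI 1 PFU/cell) 72 h post infection at 37C; compounds added after 16 h cell attachment; activity normalized between buffer-only basal and Salinomycin (10uM) inhibitor controls.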
# % is set by controls: 0 for no effect and ±100 for the full control effect.
row,SMILES,"activity change, negative = inhibition"
1,O=C1c2cccc3cccc(c23)C(=O)N1CCCCCc1n[nH]c(=S)o1,inconclusive: -54.2%
2,COCCNC(=O)C1CCCN(C(=O)c2cc(-c3cccs3)oc2C)CC1 (configuration not stated),active: -67.2%
3,O=C(CCc1nnc(COc2ccccc2)o1)NCc1ccccc1,inactive: -13.7%
4,Cc1ccc(-c2ccc(=O)n(CC(=O)NCCN(C)C)n2)cc1,inconclusive: -53.2%
5,O=C(NC1CCCC1)C(c1ccncc1)N(Cc1ccccc1F)C(=O)c1csnn1 (configuration not stated),inconclusive: -59%
6,CCN(CC)c1ccc(/C=C(\C#N)C(=O)c2ccc(Br)cc2)cc1,active: -64.6%
7,CC(=O)NCC(=O)OCC(=O)Nc1nc(-c2ccccc2)cs1,inactive: -30.4%
8,Cc1ccc(-n2c(C)cc(C=C3C(=O)CC(C)(C)CC3=O)c2C)cc1,inconclusive: -40.2%
9,O=S(=O)(NC1c2cccc3cccc(c23)C1N1CCNCC1)c1ccc(Cl)cc1 (configuration not stated),inconclusive: -46.4%
10,COC(=O)c1cc(OC)c(OC)cc1NC(=O)c1cc(C(C)(C)C)oc1C,inconclusive: -41.1%
11,CCOc1c(Br)cc(/C=N\NC(=O)c2ccccc2)cc1OC,active: -62.5%
12,O=C(NC1CCCC1)c1cccc2c1C(=O)c1ccc(/C=C/c3ccccc3)cc1S2(=O)=O,inconclusive: -53.1%
13,CCCOC(=O)c1[nH]c2c(c1C)C(=O)CC(c1cccs1)C2 (configuration not stated),active: -91.4%
14,COc1ccc(OCCSc2nc(-c3ccccc3)cc(=O)[nH]2)cc1,inconclusive: -43.5%
15,COc1ccc(CNC(=O)C2CCN(S(=O)(=O)N3CCCCC3)CC2)cc1,inactive: 0%
16,Cc1ccc(C(=O)Nc2cccc(C(F)(F)F)c2)cc1NC(=O)c1nccn1C,inconclusive: -47.4%
17,CCCSc1ncc(Cl)c(C(=O)N(Cc2ccccc2)c2ccc(OC)cc2)n1,active: -75.4%
18,C/C(=N\NC(=O)c1c(Cl)cnn1C)c1cccc(NC(=O)COc2ccccc2)c1,inconclusive: -49.2%
19,COc1ccc(N2CCN(C(=O)CCC(=O)N3CCOc4ccc(C)cc43)CC2)cc1,inconclusive: -48.1%
20,Cc1cc(C)n(-c2nc(Nc3ccccc3C)nc(-n3nc(C)cc3C)n2)n1,active: -97.3%
21,CCN(CC(=O)NCc1cccs1)C(=O)/C=C/c1cc(Br)ccc1OC(F)F,inconclusive: -50.3%
22,Cn1cc(S(=O)(=O)N2CCCC2)cc1C(=O)N1CCN(c2cccc(Cl)c2)CC1,inconclusive: -46.3%

# Seven structures from above, ordered by number of heavy atoms, largest number first.
row,SMILES,"activity change, negative = inhibition"
5,O=C(NC1CCCC1)C(c1ccncc1)N(Cc1ccccc1F)C(=O)c1csnn1 (configuration not stated),inconclusive: -59%
18,C/C(=N\NC(=O)c1c(Cl)cnn1C)c1cccc(NC(=O)COc2ccccc2)c1,inconclusive: -49.2%
22,Cn1cc(S(=O)(=O)N2CCCC2)cc1C(=O)N1CCN(c2cccc(Cl)c2)CC1,inconclusive: -46.3%
10,COC(=O)c1cc(OC)c(OC)cc1NC(=O)c1cc(C(C)(C)C)oc1C,inconclusive: -41.1%
1,O=C1c2cccc3cccc(c23)C(=O)N1CCCCCc1n[nH]c(=S)o1,inconclusive: -54.2%
14,COc1ccc(OCCSc2nc(-c3ccccc3)cc(=O)[nH]2)cc1,inconclusive: -43.5%
11,CCOc1c(Br)cc(/C=N\NC(=O)c2ccccc2)cc1OC,active: -62.5%

# Carrying on:

row,SMILES,"activity change, negative = inhibition"
1,Cc1ccc(N2C(=O)c3n[nH]c(C)c3C2c2ccccc2Cl)cc1 (configuration not stated),inconclusive: -47%
2,CC(C)(C)c1ccc(-c2n[nH]c(=S)n2C2CCCC2)cc1,active: -90.9%
3,O=C(O)c1ccccc1N/N=C\c1ccnc2ccccc12,inconclusive: -59.5%
4,CCCCN(CCCNC(=O)c1ccc(CS(=O)(=O)c2c(Cl)cccc2Cl)o1)Cc1ccccc1,inconclusive: -42.7%
5,Cc1cccc2sc(NC(=O)CCNS(=O)(=O)c3cccs3)nc12,inactive: 25.9%
6,Cc1ccc(-c2cc(C(=O)NCC3(N(C)C)CCCCC3)c3ccccc3n2)o1,inconclusive: -42.2%
7,CCc1ccc(-n2nc(C)c3c(C)cc(=O)n(CC(=O)Nc4cc(C)ccc4C)c32)cc1,inactive: 29%
8,O=C(COC(=O)C12CC3CC(CC(C3)C1)C2)Nc1nccs1,inconclusive: -40%
9,CC1CCN(C(=O)COC(=O)CNC(=O)C23CC4CC(CC(C4)C2)C3)CC1,inactive: -21.7%
10,O=C(Nc1ccc(Cl)cc1)Nc1nc(-c2sccc2Br)cs1,inconclusive: -58.5%
11,Cc1cc(C)cc(C(=O)NCCc2csc(-c3ccc(C(F)(F)F)cc3)n2)c1,inactive: 17.9%
12,O=C(CSc1nc2c([nH]c3ccccc32)c(=O)n1-c1cccc(Cl)c1)c1ccccc1,inactive: 3.1%
13,CCOC(=O)c1ccc(NC(=S)N(CCCN2CCN(CC)CC2)Cc2cccs2)cc1,inactive: 0.932%
14,COc1ccc(N2CCN(CCCNC(=O)c3cnn(-c4ccc(C)cc4)c3-n3cccc3)CC2)cc1,inconclusive: -46.9%
15,CC(=O)Nc1cccc(-c2cc(NC(C)=O)c3ncc(-c4ccc(C(C)=O)cc4)n3c2)c1,inconclusive: -45.6%
16,O=C(CCc1cccc(Cl)c1)N1CCCC(Nc2ccccc2)C1 (configuration not stated),inconclusive: -48%
17,COc1ccc(CNCCc2c(C)[nH]c3ccc(OC(F)(F)F)cc23)c(OC)c1,active: -66.2%
18,CN(C)c1ccc(C(CNC(=O)c2ccccc2Cl)N2CCCC2)cc1 (configuration not stated),inactive: -10.9%
19,CCN(CC(=O)Nc1ccc(NC(C)=O)cc1)C(=O)c1ccc(N2C(=O)c3ccccc3C2=O)cc1,inactive: 0.353%
20,Cc1cc(/C=C2/C(=N)N3C(c4ccccc4)=CSC3=NC2=O)c(C)n1-c1ccc(Cl)cc1,inactive: -12.4%
21,CCn1c(Cc2ccccc2)nnc1SCC(=O)NC1CCCC1,inconclusive: -41.1%
22,CCOc1ccc(NC(=O)N(Cc2cn(CC)c3ccccc23)C2CCCCCC2)cc1,active: -86.9%

row,SMILES,"activity change, negative = inhibition"
1,CCn1ccnc1CN(C)Cc1cn(C)nc1-c1ccccc1F,inconclusive: -48.4%
2,Cc1cc(C)c(OCCCNC2CCCC2)c(Br)c1,inconclusive: -47.2%
3,N#Cc1ccccc1OCC(=O)OCC(=O)Nc1ccc2c(c1)OCO2,inconclusive: -44.7%
4,Cc1cccc(OCC(=O)N2CCC(c3nc4ccccc4o3)CC2)c1C,inactive: -24.3%
5,CS(=O)(=O)CC[C@@H](C(=O)NCCc1ccccc1)N1Cc2ccccc2C1=O,inactive: -1.47%
6,CN(c1nnc(NC(=O)Nc2ccccc2C(F)(F)F)s1)C1CCCCC1,inactive: 15.1%
7,CCOC(=O)N1CCN(C(=O)c2oc(=O)c3ccccc3c2-c2ccc(C)cc2)CC1,inconclusive: -48.4%
8,O=C(CSc1nnc(C2CC2)n1C1CC1)c1ccc(F)cc1,inconclusive: -40.8%
9,O=C(COc1ccc(Br)cc1Br)NC1CCCC1,active: -62.7%
10,COc1cc(C)nc(-c2csc(C)n2)n1,active: -86.5%
11,Cc1ccccc1C(=O)N[C@H](C(=O)N1CCC[C@H]1C(=O)NCCc1ccccc1Cl)C(C)C,inconclusive: -43.2%
12,CC[n+]1c(C)sc2c3ccsc3ccc21,inactive: -15.8%
13,COc1ccc(C2=NCCn3nc4ccccc4c32)cc1,inactive: 4.12%
14,COc1ccc(S(=O)(=O)c2c(C(=O)c3ccc(C)c(C)c3)cnc3ccc(C)cc23)cc1,inconclusive: -56.9%
15,CCOc1ncccc1C(=O)N1CCN(c2cccc(C)c2C)CC1,active: -96%
16,O=C(Cc1ccc(S(=O)(=O)N2CCCC2)s1)Nc1cccc([N+](=O)[O-])c1,inactive: 0%
17,CC(=O)c1ccc(OCc2cc(C(=O)N3CCOCC3)no2)cc1,inactive: 153%
18,COc1cc(NC(=O)c2cnc(NCc3ccccc3)nc2C)cc(OC)c1OC,inactive: -33.3%
19,Cc1ccc(N2C(=O)C(CC(=O)Nc3cccc(F)c3)N(CCc3ccccc3F)C2=O)cc1 (configuration not stated),inactive: 23.1%
20,Cc1ccc2c(c1)cc1c(=O)[nH]ncn12,inactive: 100%
21,CCOc1ccc(Nc2cc(=O)oc3ccccc23)cc1,inconclusive: -55.5%
22,CCOC1(/N=C(\C)NS(=O)(=O)c2ccc(Cl)cc2)C(C)=CC(=O)C=C1C,inconclusive: -48.8%

row,SMILES,"activity change, negative = inhibition"
1,CC(=O)Nc1ccc(S(=O)(=O)NC(CC(=O)O)c2ccc(C)cc2)cc1 (configuration not stated),inactive: -19%
2,CCc1cccc(NC(=O)CSc2nnc(-c3cc4occc4n3C)n2-c2ccccc2C)c1,inactive: 0.107%
3,O=C(O)c1ccc(NS(=O)(=O)c2ccc(N3CCCC3)c([N+](=O)[O-])c2)cc1,inconclusive: -54.9%
4,CC1=NN(c2ccccc2)C(=O)C1CCC#N (configuration not stated),inactive: 14.4%
5,CCOc1ccc(N2CC(O)=C(c3ccccc3)C2=N)cc1,inactive: -3.37%
6,Cc1cc(C)c(OCC(=O)N2CC=C(c3ccccc3)CC2)c(C)c1,active: -66.7%
7,COc1ccc2c(c1)c(=O)oc1c(C)c(OCc3cc(C(=O)O)oc3C)ccc12,inconclusive: -51.8%
8,CC1CCN(S(=O)(=O)c2cc(C(=O)N3CCN(c4cccc(Cl)c4)CC3)n(C)c2)CC1,inconclusive: -49.2%
9,CCOC(=O)c1cc(C#N)c(N2CCN(C(=O)c3cccc(C(F)(F)F)c3)CC2)nc1C(F)(F)F,inconclusive: -51.6%
10,CCOC(=O)c1sc(NC(=O)COc2ncnc3ccccc23)c(C(=O)OCC)c1C,inconclusive: -43.7%
11,NC(Cc1ccccc1)c1csc(NC(=O)c2cccc(OC(F)(F)F)c2)n1 (configuration not stated),active: -101%
12,CC(=O)c1c(C)[nH]c(C(=O)NCCC2=CCCCC2)c1C,inconclusive: -40.3%
13,CCN(CC)C(=O)Oc1ccc(Br)cc1C(=O)Nc1ccc(F)c(Cl)c1,inconclusive: -51.9%
14,Cc1ccc(NC(=O)N(Cc2cc3cc(C)cc(C)c3[nH]c2=O)CC2COCCO2)cc1 (configuration not stated),inconclusive: -56.4%
15,Cc1c(C(=O)N2CCN(c3ccc([N+](=O)[O-])cc3)CC2)sc2ncn(CC(=O)N3CCOCC3)c(=O)c12,active: -80.4%
16,CCCCNc1oc(-c2cccs2)nc1S(=O)(=O)c1ccccc1,inconclusive: -40.9%
17,COc1cc(NC(=O)N(Cc2ccco2)C2CCN(C(C)=O)CC2)cc(OC)c1OC,inactive: -24.8%
18,CCO/C=C/C(=O)N(C)CCC#N,inactive: 25%
19,CS(=O)(=O)NCCNc1ncc(C(F)(F)F)cc1Cl,inconclusive: -43.5%
20,Fc1cc(F)c2ncc3c(-c4ccccc4)nn(-c4cccc(Cl)c4)c3c2c1,inactive: 14.4%
21,O=C(CSc1ccc2c(c1)OCCO2)NCCc1ccc(Cl)cc1Cl,inconclusive: -57.6%
